Data published in PubChem BioAssay AID504834 (National Center for Advancing Translational Sciences (NCATS), 2011).
The whole screen tested about 320,000 compounds, of which about 22,000 (6.9%) were called active. Inconclusive results, whose numbers are uncertain, are shown with a selection of clear calls. Calls follow the shape of the dose curve; as a rule, active = well fitted inhibition curve with a large enough effect; inconclusive = small, poorly fitted or top-dose-only effect, or another doubt; inactive = no such curve, though single readings can be large or run the other way. Where the call is inconclusive, the potency comes from a doubtful curve fit.
% is scaled to controls: 0 for no effect and ±100 for the full control effect; potency is read from the fitted curve at half-maximal effect.

Assay: Primary qHTS for delayed death inhibitors of the malarial parasite plastid, 96 hour incubation
Conditions: P. falciparum luciferase reporter growth; series mostly up to 28.7 µM; activity change, negative = inhibition: at the top concentration
How it was run: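 Cell-based qHTS: luciferase-tagged P. falciparum in erythrocytes (2% hematocrit, 0.05% parasitemia final) incubated with compounds for 96 hours, 37 C, 5% CO2; luciferase detection reagent then added and luminescence measured.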
In the case of `COc1cccc(CNc2ccc3[nH]c(=O)[nH]c3c2)c1OCc1ccccc1F`, the Potency was inconclusive: 18.5 µM [inhibitor, single point]. In the case of `C/C(=N\NC(=O)c1cc(-c2cccs2)nc2ccccc12)c1ccccn1`, the Potency was inconclusive: 0.329 µM [inhibitor, full curve, poor fit]. With `CCOc1ccc(CN2CCN(Cc3cc4c(cc3Cl)OCO4)CC2CCO)cc1` (configuration not stated) the Potency was inconclusive: 18.5 µM [inhibitor, single point]. In the case of `COc1ccc(OC)c(-n2c(CNC3CCN(Cc4ccccc4)CC3)nc3ccccc3c2=O)c1`, the Potency was active: 11.7 µM. In the case of `Cc1ccc2oc(=O)c(/C=C(\O)CC(C)C)nc2c1`, the Potency was inconclusive: 10.4 µM [inhibitor, partial curve]. In the case of `N/C(=N\OC(=O)c1ccccc1)c1ccncc1`, the Potency was inconclusive: 18.5 µM [inhibitor, single point]. For `O=[N+]([O-])c1ccc(-c2csc(N3CCCCCC3)n2)cc1`, the Potency was inconclusive: 18.5 µM [inhibitor, single point]. With `COc1ccc(NC(=O)c2c(F)cccc2F)cc1S(=O)(=O)Nc1ccc(Br)cc1` the Potency was inconclusive: 14.7 µM [inhibitor, single point]. In the case of `Brc1ccc(/C=N/Nc2nncc(-c3ccccc3)n2)o1`, the Potency was inconclusive: 16.5 µM [inhibitor, single point]. With `CCOc1cc(/C=C/c2ccc3cccc([N+](=O)[O-])c3n2)ccc1OCC(=O)N(C)C` the Potency was inconclusive: 4.65 µM [inhibitor, partial curve, poor fit]. With `Cc1cccc(CN2CCC(N3CC(C)OC(C)C3)CC2)c1` (configuration not stated) the Potency was active: 11.7 µM. For `CN(CC(=O)Nc1cccc(F)c1)C(=O)CCCNC(=O)c1ccc(Cl)cc1`, the “activity change, negative = inhibition” value was inactive: 125%. In the case of `COc1ccc(O)c(C(=O)C2c3ccccc3C(=O)N2c2ccc(C)cc2)c1` (configuration not stated), the Potency was active: 1.47 µM. In the case of `O=C1NC(c2ccccc2Br)=N/C1=C\c1ccco1`, the “activity change, negative = inhibition” value was inactive: 0%. In the case of `COc1cc2cc(CN(Cc3cccnc3)C(=O)NCc3ccccc3)c(=O)[nH]c2cc1OC`, the Potency was inconclusive: 0.294 µM [inhibitor, full curve, poor fit]. In the case of `C[N+]1=C(/C=C/Nc2ccccc2)C(C)(C)c2ccccc21`, the Potency was inconclusive: 5.22 µM [inhibitor, single point]. With `CCn1c(O)c(N=NC2=NC(=O)CS2)c2cc(C)ccc21` the Potency was inconclusive: 2.33 µM [inhibitor, partial curve, poor fit]. With `COc1ccc(OC)c(NC(=O)CSc2nnc(CNC(=O)COc3ccc(Cl)cc3)o2)c1` the Potency was inconclusive: 18.5 µM [inhibitor, single point]. For `Cc1cc2nc(N3C(=O)CNC3=S)sc2cc1C`, the “activity change, negative = inhibition” value was inactive: -3.33%. For `C#CCN(CC=C)C(=O)c1ccc(OC2CCN(S(=O)(=O)N(C)C)CC2)cc1`, the Potency was inconclusive: 10.4 µM [inhibitor, single point]. With `Cc1ccc(C)c(SCC(=O)OC/C(O)=C(\C#N)c2nc3ccccc3[nH]2)c1` the Potency was inconclusive: 10.4 µM [inhibitor, partial curve]. In the case of `COc1ccc2ccccc2c1/C=N/NC(=O)c1cccc([N+](=O)[O-])c1`, the “activity change, negative = inhibition” value was inactive: 4.43%. With `CC(=O)Nc1c(O)n(C)c2ccccc12` the Potency was inconclusive: 0.415 µM [inhibitor, full curve, poor fit]. For `CC1C(=O)Nc2ccccc2N1C(=O)c1c(F)cccc1F` (configuration not stated), the “activity change, negative = inhibition” value was inactive: -2.07%. With `O=C(CCC(=O)N1CCCC1)Nc1nnc(C2CCCCC2)s1` the Potency was inconclusive: 7.38 µM [inhibitor, partial curve]. With `Oc1ccc(Br)cc1-c1ccn[nH]1` the “activity change, negative = inhibition” value was inactive: 29.9%. For `COc1ccc(OCCOC(=O)c2ccc(-n3cnnn3)cc2)cc1`, the Potency was inconclusive: 10.4 µM [inhibitor, single point]. In the case of `O=C(Nc1cccc(S(=O)(=O)N2CCCCC2)c1)C1CC(=O)N(c2ccc3c(c2)OCCO3)C1` (configuration not stated), the Potency was inconclusive: 14.7 µM [inhibitor, partial curve, poor fit]. In the case of `CCN(CC)C(=S)NC(=O)C12CC3CC(CC(C3)C1)C2`, the “activity change, negative = inhibition” value was inactive: 84.2%. In the case of `O=C(CN1CCc2ccccc2C1)Nc1ccccc1Cl`, the Potency was inconclusive: 11.7 µM [inhibitor, single point]. For `C/C(=N\NC(=S)NCc1ccccc1)c1ccc2ccccc2c1OC(F)F`, the Potency was inconclusive: 13.1 µM [inhibitor, single point]. For `O=C(Nc1cccc(C(F)(F)F)c1)NC1CCN(S(=O)(=O)c2ccc(F)cc2)CC1`, the Potency was inconclusive: 10.4 µM [inhibitor, partial curve, poor fit]. For `CCc1ccc(C2=NN(CCC(=O)NC3CCCCCC3)C(=O)CC2)cc1`, the Potency was active: 10.4 µM. For `N#Cc1ccc(Oc2nc(Nc3ccc(F)cc3)nc(N3CCCC3)n2)cc1`, the Potency was active: 4.15 µM. For `O=[N+]([O-])c1ccc(NNC(=S)Nc2ccc(F)cc2)cc1`, the Potency was inconclusive: 13.1 µM [inhibitor, partial curve, poor fit]. With `O=C(CCl)NCCNC(=O)c1cc(OCC(F)(F)F)ccc1OCC(F)(F)F` the Potency was inconclusive: 14.7 µM [inhibitor, single point]. For `CC(=O)Nc1ccc2nc(CN3CCN(CC=C(C)C)C(CCO)C3)ccc2c1` (configuration not stated), the Potency was inconclusive: 13.1 µM [inhibitor, partial curve, poor fit]. In the case of `CC1CCCN(CCOCCSc2ccccc2)C1` (configuration not stated), the Potency was inconclusive: 18.5 µM [inhibitor, single point]. For `O=C1C(C=NCCCN2CCCC2=O)=C(O)c2ccccc21`, the Potency was active: 13.1 µM. With `CC1CCC(N(C)C2CCN(C)CC2)CC1` (configuration not stated) the Potency was inconclusive: 10.4 µM [inhibitor, partial curve]. With `COC(=O)c1cc(Cl)c(NC(=O)c2cc3ccccc3o2)cc1OC` the Potency was inconclusive: 0.185 µM [inhibitor, full curve, poor fit]. In the case of `Cc1ccc(CNC(=O)c2ccc(N3CCC4(CC3)CC(c3ccccc3)=NO4)c(NC(=O)c3c(Cl)cccc3Cl)c2)cc1`, the Potency was inconclusive: 2.62 µM [inhibitor, partial curve, poor fit]. For `CCOc1ccccc1CNC(=O)Cn1nc(C)c2c(C)n(-c3ccc(C)cc3)nc2c1=O`, the Potency was inconclusive: 5.22 µM [inhibitor, partial curve]. In the case of `CC(C(=O)NC1CCCC1)N(C(=O)Cn1nnc(-c2ccc(F)cc2)n1)c1ccccc1F` (configuration not stated), the Potency was inconclusive: 18.5 µM [inhibitor, single point]. With `COc1cc(OC)cc(C(=O)N/N=C/c2ccc(OC)c(COc3ccc(F)cc3)c2)c1` the “activity change, negative = inhibition” value was inactive: -18.8%. With `CN(CC(=O)NCC(=O)Nc1ccc(F)c(F)c1F)C1CCS(=O)(=O)C1` (configuration not stated) the “activity change, negative = inhibition” value was inactive: 13.7%. With `O=C(O)CN1C(=O)c2cccc3c(Br)ccc1c23` the Potency was inconclusive: 11.7 µM [inhibitor, partial curve, poor fit]. With `Cc1cc(=O)oc2cc(OCC(=O)NC3CC(C)(C)NC(C)(C)C3)c(Cl)cc12` the “activity change, negative = inhibition” value was inactive: -16.2%. In the case of `Fc1ccccc1CSc1nnc(-c2cccnc2)o1`, the Potency was inconclusive: 18.5 µM [inhibitor, single point]. With `CN1CCC(=O)N([C@H](CSc2ccccc2)Cc2ccccc2)CC1` the Potency was inconclusive: 18.5 µM [inhibitor, single point]. In the case of `COc1cccc(C2CC(c3ccccc3)=NN2S(=O)(=O)c2ccc(C)cc2)c1OC` (configuration not stated), the Potency was inconclusive: 18.5 µM [inhibitor, single point]. In the case of `Fc1ccc(N2CCN(C(=S)NCc3ccco3)CC2)cc1`, the Potency was inconclusive: 18.5 µM [inhibitor, single point]. With `Cc1cc(-c2nnnn2-c2ccc(C(F)(F)F)cc2)no1` the “activity change, negative = inhibition” value was inactive: 43.8%. With `COc1cc(C2C(C#N)=C(N)OC3=C2C(=O)CCC3)c([N+](=O)[O-])cc1OC` (configuration not stated) the Potency was inconclusive: 2.08 µM [inhibitor, partial curve, poor fit]. In the case of `C/C(=N\NC(=O)CCc1c(C)n[nH]c1C)c1ccc([N+](=O)[O-])cc1`, the Potency was inconclusive: 18.5 µM [inhibitor, partial curve, poor fit]. With `CCCC1O[C@@H]2CC3C4CCC5=CC(=O)C=C[C@]5(C)C4C(OC(C)=O)C[C@]3(C)[C@]2(C(=O)COC(C)=O)O1` (some centres not stated) the Potency was active: 1.17 µM. In the case of `Cc1ccc(S(=O)(=O)N2CN(Cc3ccco3)c3nc4ccccc4nc32)cc1C`, the Potency was inconclusive: 0.0294 µM [inhibitor, full curve]. For `O=C(NC1(C(F)(F)F)N=C(c2ccccc2)NC1=O)c1ccccc1` (configuration not stated), the Potency was inconclusive: 14.7 µM [inhibitor, single point]. With `CC1=C(C(=O)Nc2ccc(C)cc2C)C(c2cccc(Cl)c2)n2nc(C(=O)OC(C)C)nc2N1` (configuration not stated) the “activity change, negative = inhibition” value was inactive: 18.8%. In the case of `CCOc1ccc(NCc2nnc(SCc3ccccc3Cl)n2-c2ccccc2)cc1`, the “activity change, negative = inhibition” value was inactive: 346%. In the case of `CCCOc1ccc(/C=N/NC(=O)c2nnn(-c3nonc3N)c2-c2cccs2)cc1OC`, the Potency was active: 11.7 µM. With `CC(C)(C)OC(=O)[C@H](Cc1ccccc1)NC(=O)c1nc[nH]c1C(=O)N1CCN(C(=O)OC(C)(C)C)CC1` the Potency was active: 9.28 µM. With `O=C(Nc1cc(F)cc(F)c1)c1ccc(NCCCN2CCCCCC2)c([N+](=O)[O-])c1` the Potency was inconclusive: 13.1 µM [inhibitor, single point]. In the case of `CC(NC(=O)Cc1ccc(S(=O)(=O)N2CCOCC2)s1)c1ccc(Cl)c(Cl)c1` (configuration not stated), the “activity change, negative = inhibition” value was inactive: 1.8%. For `COc1cc(NC(=O)c2c(F)cccc2F)nc(OC)n1`, the Potency was inconclusive: 1.17 µM [inhibitor, partial curve, poor fit]. For `O=C(OCc1nc2ccccc2[nH]1)C12CC3CC(CC(C3)C1)C2`, the Potency was inconclusive: 0.586 µM [inhibitor, partial curve, poor fit]. In the case of `Clc1ccc(CSc2nnc(-c3cccnc3)n2Cc2ccco2)c(Cl)c1`, the Potency was inconclusive: 10.4 µM [inhibitor, single point].
